Compound in the assay: CC1Cc2ccccc2N1C(=O)C1CCCN(C1)C(=O)CCl (mixture of isomers) [TRIM25 ligand 11 (diastereomer mixture)]
As to the kind of experiment: probe-labelled cysteine peptide fold change vs DMSO (competition) (log2 fold change); higher = less target engagement (more negative = stronger competition). Particulars: THP-1, incubation time: 4 h.

Protein sequences, listed by entry. Tags and fused reporters are not part of them. Lines headed by an entry give the natural chain unless they say otherwise; changes in a name come on top.
UniProt Q15154: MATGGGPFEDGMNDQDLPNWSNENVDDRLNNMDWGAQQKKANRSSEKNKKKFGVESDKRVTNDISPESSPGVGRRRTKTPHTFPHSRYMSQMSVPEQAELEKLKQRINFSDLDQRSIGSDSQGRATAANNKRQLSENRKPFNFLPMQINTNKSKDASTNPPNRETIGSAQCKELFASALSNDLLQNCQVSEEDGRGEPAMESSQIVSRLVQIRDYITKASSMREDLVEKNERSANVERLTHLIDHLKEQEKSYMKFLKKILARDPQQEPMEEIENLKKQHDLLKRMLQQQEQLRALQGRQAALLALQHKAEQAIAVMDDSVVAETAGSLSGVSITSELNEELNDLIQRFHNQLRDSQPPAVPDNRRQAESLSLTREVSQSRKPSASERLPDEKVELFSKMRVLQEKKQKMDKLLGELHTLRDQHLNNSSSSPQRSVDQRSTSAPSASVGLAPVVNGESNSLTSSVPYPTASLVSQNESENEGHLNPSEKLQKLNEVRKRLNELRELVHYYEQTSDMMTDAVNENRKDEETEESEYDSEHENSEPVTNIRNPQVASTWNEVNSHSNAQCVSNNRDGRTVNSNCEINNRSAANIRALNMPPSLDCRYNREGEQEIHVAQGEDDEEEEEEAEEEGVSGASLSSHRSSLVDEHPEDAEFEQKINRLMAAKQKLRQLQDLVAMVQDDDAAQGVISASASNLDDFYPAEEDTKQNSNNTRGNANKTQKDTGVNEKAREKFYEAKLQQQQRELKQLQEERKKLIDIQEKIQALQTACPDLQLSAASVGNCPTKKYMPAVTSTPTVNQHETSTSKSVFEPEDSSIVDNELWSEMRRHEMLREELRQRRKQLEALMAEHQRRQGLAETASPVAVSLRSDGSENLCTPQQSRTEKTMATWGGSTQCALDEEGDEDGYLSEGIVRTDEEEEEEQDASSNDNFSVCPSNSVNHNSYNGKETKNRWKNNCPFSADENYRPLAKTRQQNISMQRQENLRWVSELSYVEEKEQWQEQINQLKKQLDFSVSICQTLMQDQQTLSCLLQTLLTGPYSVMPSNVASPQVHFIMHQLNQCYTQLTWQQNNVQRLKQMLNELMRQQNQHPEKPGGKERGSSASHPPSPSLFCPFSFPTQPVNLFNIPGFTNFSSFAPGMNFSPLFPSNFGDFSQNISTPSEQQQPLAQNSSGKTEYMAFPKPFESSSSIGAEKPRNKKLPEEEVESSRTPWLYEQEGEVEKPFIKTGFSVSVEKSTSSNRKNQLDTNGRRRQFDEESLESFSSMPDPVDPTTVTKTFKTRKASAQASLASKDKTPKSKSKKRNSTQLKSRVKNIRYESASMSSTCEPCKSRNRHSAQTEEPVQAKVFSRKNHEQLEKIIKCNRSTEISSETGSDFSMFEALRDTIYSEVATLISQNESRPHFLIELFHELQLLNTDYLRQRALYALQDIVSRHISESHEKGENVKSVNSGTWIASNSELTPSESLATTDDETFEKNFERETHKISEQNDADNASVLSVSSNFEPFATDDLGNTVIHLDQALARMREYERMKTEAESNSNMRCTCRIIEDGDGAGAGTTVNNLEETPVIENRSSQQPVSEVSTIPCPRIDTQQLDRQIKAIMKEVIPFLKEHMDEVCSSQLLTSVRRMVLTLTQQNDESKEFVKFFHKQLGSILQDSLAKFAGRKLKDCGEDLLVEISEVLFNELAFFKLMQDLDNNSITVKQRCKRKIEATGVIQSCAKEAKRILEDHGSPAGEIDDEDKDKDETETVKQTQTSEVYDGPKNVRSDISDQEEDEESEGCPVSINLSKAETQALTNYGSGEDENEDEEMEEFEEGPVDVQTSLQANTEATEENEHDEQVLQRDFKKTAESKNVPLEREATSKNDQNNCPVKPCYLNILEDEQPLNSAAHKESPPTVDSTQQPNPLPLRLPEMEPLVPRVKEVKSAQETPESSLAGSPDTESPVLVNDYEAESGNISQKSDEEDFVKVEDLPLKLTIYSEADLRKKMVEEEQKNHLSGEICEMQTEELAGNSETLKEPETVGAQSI
UniProt Q8NCN5: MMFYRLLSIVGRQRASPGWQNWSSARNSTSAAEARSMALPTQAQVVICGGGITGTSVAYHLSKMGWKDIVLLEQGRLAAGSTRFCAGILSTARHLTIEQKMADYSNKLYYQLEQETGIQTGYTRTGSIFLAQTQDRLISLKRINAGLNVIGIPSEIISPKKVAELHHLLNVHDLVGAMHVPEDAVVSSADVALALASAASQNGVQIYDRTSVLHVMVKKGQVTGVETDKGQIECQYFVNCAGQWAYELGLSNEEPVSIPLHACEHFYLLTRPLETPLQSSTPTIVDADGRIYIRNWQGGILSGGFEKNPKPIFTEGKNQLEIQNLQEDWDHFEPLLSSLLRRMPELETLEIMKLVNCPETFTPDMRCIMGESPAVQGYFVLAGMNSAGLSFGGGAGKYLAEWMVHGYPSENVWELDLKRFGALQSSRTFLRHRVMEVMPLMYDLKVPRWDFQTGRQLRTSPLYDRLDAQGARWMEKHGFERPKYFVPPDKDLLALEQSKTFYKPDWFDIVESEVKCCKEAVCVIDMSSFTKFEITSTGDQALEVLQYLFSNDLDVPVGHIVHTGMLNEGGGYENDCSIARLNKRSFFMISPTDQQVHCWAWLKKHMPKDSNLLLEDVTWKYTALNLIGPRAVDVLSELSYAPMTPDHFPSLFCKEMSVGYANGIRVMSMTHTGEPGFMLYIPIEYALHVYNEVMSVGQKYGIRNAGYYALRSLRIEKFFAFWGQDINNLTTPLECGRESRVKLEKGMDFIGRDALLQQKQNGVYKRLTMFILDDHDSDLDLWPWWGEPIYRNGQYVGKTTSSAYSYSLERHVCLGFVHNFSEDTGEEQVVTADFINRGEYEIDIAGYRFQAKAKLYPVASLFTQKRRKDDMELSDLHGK
UniProt P11177, whole entry, looked up: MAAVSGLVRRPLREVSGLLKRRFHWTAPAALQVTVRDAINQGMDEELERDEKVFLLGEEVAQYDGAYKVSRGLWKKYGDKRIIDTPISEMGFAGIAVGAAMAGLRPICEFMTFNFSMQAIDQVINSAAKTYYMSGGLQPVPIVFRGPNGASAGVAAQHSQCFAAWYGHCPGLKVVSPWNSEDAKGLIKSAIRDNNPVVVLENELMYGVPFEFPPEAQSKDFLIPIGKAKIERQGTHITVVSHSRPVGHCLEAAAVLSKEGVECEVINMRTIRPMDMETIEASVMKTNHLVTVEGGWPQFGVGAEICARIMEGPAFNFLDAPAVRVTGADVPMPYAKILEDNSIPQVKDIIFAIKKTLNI
UniProt Q9UHG3: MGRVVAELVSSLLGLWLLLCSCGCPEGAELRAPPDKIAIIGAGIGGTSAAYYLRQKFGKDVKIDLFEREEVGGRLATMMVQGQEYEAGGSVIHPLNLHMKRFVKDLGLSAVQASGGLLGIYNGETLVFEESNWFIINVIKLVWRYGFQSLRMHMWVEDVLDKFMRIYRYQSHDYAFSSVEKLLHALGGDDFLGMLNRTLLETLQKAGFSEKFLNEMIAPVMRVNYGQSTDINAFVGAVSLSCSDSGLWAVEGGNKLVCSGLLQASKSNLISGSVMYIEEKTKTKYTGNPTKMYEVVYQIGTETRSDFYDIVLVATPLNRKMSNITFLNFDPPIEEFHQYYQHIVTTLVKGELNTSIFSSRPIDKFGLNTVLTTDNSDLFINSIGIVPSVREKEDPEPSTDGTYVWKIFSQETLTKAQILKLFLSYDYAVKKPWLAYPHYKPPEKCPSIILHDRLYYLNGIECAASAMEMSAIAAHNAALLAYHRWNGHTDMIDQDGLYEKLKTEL
UniProt Q96HC4: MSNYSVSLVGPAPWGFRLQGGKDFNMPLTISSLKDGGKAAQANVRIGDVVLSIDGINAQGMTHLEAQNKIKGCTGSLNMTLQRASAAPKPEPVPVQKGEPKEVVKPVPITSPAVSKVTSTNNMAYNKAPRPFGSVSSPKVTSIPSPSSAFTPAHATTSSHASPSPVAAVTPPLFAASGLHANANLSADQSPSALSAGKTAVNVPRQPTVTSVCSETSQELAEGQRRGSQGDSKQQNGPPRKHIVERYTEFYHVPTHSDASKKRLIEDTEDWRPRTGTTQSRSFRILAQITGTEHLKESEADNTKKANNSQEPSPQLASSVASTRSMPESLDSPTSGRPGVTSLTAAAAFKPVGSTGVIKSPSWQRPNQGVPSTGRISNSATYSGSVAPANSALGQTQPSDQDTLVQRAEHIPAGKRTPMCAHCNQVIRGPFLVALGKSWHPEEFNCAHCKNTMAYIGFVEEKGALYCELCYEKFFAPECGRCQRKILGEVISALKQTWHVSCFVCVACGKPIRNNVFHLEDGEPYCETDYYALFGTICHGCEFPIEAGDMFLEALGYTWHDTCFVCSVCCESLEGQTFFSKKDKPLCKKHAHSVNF
UniProt Q29RF7: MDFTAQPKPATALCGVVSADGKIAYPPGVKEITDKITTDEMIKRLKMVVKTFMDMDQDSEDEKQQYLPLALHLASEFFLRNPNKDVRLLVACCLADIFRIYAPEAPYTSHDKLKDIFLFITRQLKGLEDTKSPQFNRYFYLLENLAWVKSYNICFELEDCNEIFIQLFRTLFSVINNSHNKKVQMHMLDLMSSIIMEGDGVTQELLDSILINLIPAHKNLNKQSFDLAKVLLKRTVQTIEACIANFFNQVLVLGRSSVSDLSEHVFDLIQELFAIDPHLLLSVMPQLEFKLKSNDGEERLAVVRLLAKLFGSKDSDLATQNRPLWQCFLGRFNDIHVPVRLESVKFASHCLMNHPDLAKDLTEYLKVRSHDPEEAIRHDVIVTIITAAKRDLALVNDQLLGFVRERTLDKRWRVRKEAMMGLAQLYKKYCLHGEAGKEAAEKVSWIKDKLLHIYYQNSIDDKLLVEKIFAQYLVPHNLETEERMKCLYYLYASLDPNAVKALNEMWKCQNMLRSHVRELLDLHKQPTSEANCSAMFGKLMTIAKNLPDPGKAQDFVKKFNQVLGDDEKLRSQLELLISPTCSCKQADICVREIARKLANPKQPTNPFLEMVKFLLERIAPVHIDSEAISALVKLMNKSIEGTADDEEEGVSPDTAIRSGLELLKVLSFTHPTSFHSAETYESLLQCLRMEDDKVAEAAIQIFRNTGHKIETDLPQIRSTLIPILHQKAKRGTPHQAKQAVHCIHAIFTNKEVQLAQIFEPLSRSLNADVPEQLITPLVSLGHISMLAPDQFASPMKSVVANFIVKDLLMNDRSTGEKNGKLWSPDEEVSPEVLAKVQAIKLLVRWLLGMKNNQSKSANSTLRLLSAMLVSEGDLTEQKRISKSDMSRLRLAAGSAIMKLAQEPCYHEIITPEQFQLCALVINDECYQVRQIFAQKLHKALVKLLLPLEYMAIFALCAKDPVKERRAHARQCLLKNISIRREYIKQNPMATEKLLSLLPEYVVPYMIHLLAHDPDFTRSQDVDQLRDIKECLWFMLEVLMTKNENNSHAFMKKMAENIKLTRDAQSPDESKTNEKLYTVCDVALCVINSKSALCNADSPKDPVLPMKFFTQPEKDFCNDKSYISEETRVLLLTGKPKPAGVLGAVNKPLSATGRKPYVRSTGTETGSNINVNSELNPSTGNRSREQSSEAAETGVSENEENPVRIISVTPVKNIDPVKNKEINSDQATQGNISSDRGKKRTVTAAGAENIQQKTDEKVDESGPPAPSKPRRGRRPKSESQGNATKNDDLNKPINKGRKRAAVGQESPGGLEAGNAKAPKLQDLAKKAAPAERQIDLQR
UniProt P05166: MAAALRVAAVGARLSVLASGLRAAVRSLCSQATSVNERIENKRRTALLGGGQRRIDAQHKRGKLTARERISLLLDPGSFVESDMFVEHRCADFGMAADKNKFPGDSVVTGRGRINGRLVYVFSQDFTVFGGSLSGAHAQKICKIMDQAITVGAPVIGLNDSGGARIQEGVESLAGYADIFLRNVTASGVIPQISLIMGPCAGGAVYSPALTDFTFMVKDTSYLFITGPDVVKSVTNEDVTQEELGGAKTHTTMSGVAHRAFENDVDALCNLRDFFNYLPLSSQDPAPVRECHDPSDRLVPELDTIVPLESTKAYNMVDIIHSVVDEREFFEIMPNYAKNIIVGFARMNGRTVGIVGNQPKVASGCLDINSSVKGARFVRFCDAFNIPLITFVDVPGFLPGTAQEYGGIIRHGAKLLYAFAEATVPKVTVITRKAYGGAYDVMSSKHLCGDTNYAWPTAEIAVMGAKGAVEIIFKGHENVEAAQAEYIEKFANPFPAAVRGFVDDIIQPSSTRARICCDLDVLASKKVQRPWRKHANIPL
UniProt P30039: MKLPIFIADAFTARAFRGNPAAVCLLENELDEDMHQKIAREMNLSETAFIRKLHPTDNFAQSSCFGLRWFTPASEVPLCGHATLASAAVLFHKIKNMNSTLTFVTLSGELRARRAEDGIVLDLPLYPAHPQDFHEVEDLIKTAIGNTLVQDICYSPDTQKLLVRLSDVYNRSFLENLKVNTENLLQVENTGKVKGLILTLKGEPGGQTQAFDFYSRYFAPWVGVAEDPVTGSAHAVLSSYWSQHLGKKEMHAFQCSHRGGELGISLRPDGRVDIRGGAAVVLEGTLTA

The list shows a part of the results.
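Further: competitive chemoproteomic profiling in live THP-1 cells with an iodoacetamide desthiobiotin (IA-DTB) probe, comparing probe-labelled peptide intensities in compound-treated cells against DMSO-treated controls.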

For “PCM1_Q15154_1717_KIEATGVIQSCAK (UniProt Q15154)”, the “probe-labelled cysteine peptide fold change” value (10 µM) was -0.0999 and the “probe-labelled cysteine peptide fold change” value (50 µM) is -0.201.

With “PDIA3_P30101_244_FIQENIFGICPHMTEDNK (UniProt P30101)”, the “probe-labelled cysteine peptide fold change” value by setting is: (10 µM) -0.024; (50 µM) -0.2.

For the target “PCDH17_O14917_335_DLGPNPIPAHCK (UniProt O14917)”, the “probe-labelled cysteine peptide fold change” value is, setting by setting: (10 µM) 0.6; (50 µM) 0.546.

As for “PDPR_Q8NCN5_357_LVNCPETFTPDMR (UniProt Q8NCN5)”, the “probe-labelled cysteine peptide fold change” value reads like this: (10 µM) -0.0721; (50 µM) 0.18.

“PCGF5_Q86SE9_34_GYLIKPTTVTECLHTFCK (UniProt Q86SE9)”: the “probe-labelled cysteine peptide fold change” value by setting is: (10 µM) -0.053; (50 µM) -0.054.

Take “PCNT_O95613_321_CGQEAAELK (UniProt O95613)”: the “probe-labelled cysteine peptide fold change” value was -0.05 (10 µM) and 0.111 (50 µM).

As for “PDHB_P11177_161_GPNGASAGVAAQHSQCFAAWYGHCPGLK (UniProt P11177)”, the “probe-labelled cysteine peptide fold change” value is, setting by setting: (10 µM) 0.0327; (50 µM) 0.0759.

For “PDPK1_O15530_181_IGSFDETCTR (UniProt O15530)”, the “probe-labelled cysteine peptide fold change” value is 0.0617 (10 µM) and 0.181 (50 µM).

For “PCYOX1_Q9UHG3_445_CPSIILHDR (UniProt Q9UHG3)”, the “probe-labelled cysteine peptide fold change” value came to 0.00844 (10 µM) and 0.141 (50 µM).

Turning to “PDLIM5_Q96HC4_73_GCTGSLNMTLQR (UniProt Q96HC4)”, the “probe-labelled cysteine peptide fold change” value runs as follows: (10 µM) 0.00727; (50 µM) 0.0182.

As for “PDIA5_Q14554_231_GFPTICYFEK (UniProt Q14554)”, the “probe-labelled cysteine peptide fold change” value (10 µM) is -0.0352 and the “probe-labelled cysteine peptide fold change” value (50 µM) is -0.1.

For “PCBD2_Q9H0N5_109_VQITLTSHDCGELTK (UniProt Q9H0N5)”, the “probe-labelled cysteine peptide fold change” value was determined as 0.0678 (10 µM) and 0.111 (50 µM).

For “PDCD4_Q53EL6_288_GTVDCVQAR (UniProt Q53EL6)”, the “probe-labelled cysteine peptide fold change” value (10 µM) came out at 0.164 and the “probe-labelled cysteine peptide fold change” value (50 µM) was 0.233.

As to “PARP1_P09874_908_SANYCHTSQGDPIGLILLGEVALGNMYELK (UniProt P09874)”, the “probe-labelled cysteine peptide fold change” value (10 µM) is -0.146 and the “probe-labelled cysteine peptide fold change” value (50 µM) was -0.761.

For “PDLIM7_Q9NR12_311_YLVALGHAYHPEEFVCSQCGK (UniProt Q9NR12)”, the “probe-labelled cysteine peptide fold change” value is, setting by setting: (10 µM) -0.0266; (50 µM) 0.12.

With “PCBP1_Q15365_201_CSDAAGYPHATHDLEGPPLDAYSIQGQHTISPLDLAK (UniProt Q15365)”, the “probe-labelled cysteine peptide fold change” value reads like this: (10 µM) -0.108; (50 µM) -0.282.

Consider “PCM1_Q15154_1616_EHMDEVCSSQLLTSVRR (UniProt Q15154)”, for which the “probe-labelled cysteine peptide fold change” value is, setting by setting: (10 µM) -0.367; (50 µM) -0.438.

In the case of “PDPR_Q8NCN5_735_FFAFWGQDINNLTTPLECGR (UniProt Q8NCN5)”, the “probe-labelled cysteine peptide fold change” value is, setting by setting: (10 µM) -0.113; (50 µM) -0.454.

With “PDIA6_Q15084_55_EVIQSDSLWLVEFYAPWCGHCQR (UniProt Q15084)”, the “probe-labelled cysteine peptide fold change” value by setting is: (10 µM) -0.19; (50 µM) -0.166.

Turning to “PCBP3_P57721_141_LVVPASQCGSLIGK (UniProt P57721)”, the “probe-labelled cysteine peptide fold change” value runs as follows: (10 µM) -0.0567; (50 µM) -0.121.

For the target “PDLIM1_O00151_45_AALANLCIGDVITAIDGENTSNMTHLEAQNR (UniProt O00151)”, the “probe-labelled cysteine peptide fold change” value reads like this: (10 µM) -0.107; (50 µM) -0.207.

As for “PDK1_Q15118_240_RLCDLYYINSPELELEELNAK (UniProt Q15118)”, the “probe-labelled cysteine peptide fold change” value by setting is: (10 µM) 0.246; (50 µM) 0.316.

Regarding “PDLIM5_Q96HC4_479_FFAPECGR (UniProt Q96HC4)”, the “probe-labelled cysteine peptide fold change” value by setting is: (10 µM) 0.0431; (50 µM) 0.0153.

In the case of “PDS5A_Q29RF7_350_FASHCLMNHPDLAK (UniProt Q29RF7)”, the “probe-labelled cysteine peptide fold change” value reads like this: (10 µM) -0.055; (50 µM) -0.0499.

In the case of “PARP9_Q8IXQ6_82_QLCEVLQNK (UniProt Q8IXQ6)”, the “probe-labelled cysteine peptide fold change” value runs as follows: (10 µM) -0.215; (50 µM) -0.188.

Turning to “PCYOX1_Q9UHG3_258_LVCSGLLQASK (UniProt Q9UHG3)”, the “probe-labelled cysteine peptide fold change” value reads like this: (10 µM) 0.0254; (50 µM) -0.0374.

In the case of “PDHB_P11177_249_PVGHCLEAAAVLSK (UniProt P11177)”, the “probe-labelled cysteine peptide fold change” value (10 µM) worked out at 0.0222 and the “probe-labelled cysteine peptide fold change” value (50 µM) turned out to be 0.128.

In the case of “PCCA_P05165_363_LQVEHPVTECITGLDLVQEMIR (UniProt P05165)”, the “probe-labelled cysteine peptide fold change” value (10 µM) amounted to 0.0511 and the “probe-labelled cysteine peptide fold change” value (50 µM) worked out at 0.22.

Take “PARP1_P09874_429_ASLCISTKK (UniProt P09874)”: the “probe-labelled cysteine peptide fold change” value is -0.437 (10 µM) and -0.28 (50 µM).

Turning to “PDHB_P11177_249_QGTHITVVSHSRPVGHCLEAAAVLSK (UniProt P11177)”, the “probe-labelled cysteine peptide fold change” value is, setting by setting: (10 µM) -0.0181; (50 µM) -0.0863.

Take “PDLIM1_O00151_286_HPECYVCTDCGTNLK (UniProt O00151)”: the “probe-labelled cysteine peptide fold change” value is, setting by setting: (10 µM) 0.0753; (50 µM) 0.0963.

Consider “PARP1_P09874_845_NTHATTHNAYDLEVIDIFKIEREGECQR (UniProt P09874)”, for which the “probe-labelled cysteine peptide fold change” value is, setting by setting: (10 µM) -0.308; (50 µM) -0.0779.

As for “PCCB_P05166_448_HLCGDTNYAWPTAEIAVMGAK (UniProt P05166)”, the “probe-labelled cysteine peptide fold change” value runs as follows: (10 µM) 0.0602; (50 µM) 0.0486.

Consider “PAXX_Q9BUH6_80_AACEQQAVALTLQEDR (UniProt Q9BUH6)”, for which the “probe-labelled cysteine peptide fold change” value runs as follows: (10 µM) 0.0367; (50 µM) -0.0122.

Turning to “PARP1_P09874_295_VADGMVFGALLPCEECSGQLVFK (UniProt P09874)”, the “probe-labelled cysteine peptide fold change” value by setting is: (10 µM) -0.195; (50 µM) 0.0831.

As to “PBLD_P30039_24_GNPAAVCLLENELDEDMHQK (UniProt P30039)”, the “probe-labelled cysteine peptide fold change” value is, setting by setting: (10 µM) -0.0652; (50 µM) -0.114.

Turning to “PDLIM1_O00151_307_GHFFVEDQIYCEK (UniProt O00151)”, the “probe-labelled cysteine peptide fold change” value reads like this: (10 µM) 0.0336; (50 µM) -0.0596.

For “PCK2_Q16822_151_AVDERFPGCMQGR (UniProt Q16822)”, the “probe-labelled cysteine peptide fold change” value is -0.322 (10 µM) and -0.143 (50 µM).

These data come from the supplement of paper PMC12067093, “Discovery and optimisation of a covalent ligand for TRIM25 and its application to targeted protein ubiquitination” (Chemical Science, 2025).
